Source: paper doi:10.1101/2023.05.07.539754
These are yes or no findings as the source states them, for the method shown. In cells and extracts the contact can be indirect. Some binding calls cover weakened binding; strength is not graded here.

By UniProt entry, the sequences of proteins in these tests, tags left out. Where a name states a change or a piece, a line headed by the entry shows the natural chain unless it says otherwise. Chains listed by the source or under a name are the forms on record and can include a tag or linker.
UniProt P04150: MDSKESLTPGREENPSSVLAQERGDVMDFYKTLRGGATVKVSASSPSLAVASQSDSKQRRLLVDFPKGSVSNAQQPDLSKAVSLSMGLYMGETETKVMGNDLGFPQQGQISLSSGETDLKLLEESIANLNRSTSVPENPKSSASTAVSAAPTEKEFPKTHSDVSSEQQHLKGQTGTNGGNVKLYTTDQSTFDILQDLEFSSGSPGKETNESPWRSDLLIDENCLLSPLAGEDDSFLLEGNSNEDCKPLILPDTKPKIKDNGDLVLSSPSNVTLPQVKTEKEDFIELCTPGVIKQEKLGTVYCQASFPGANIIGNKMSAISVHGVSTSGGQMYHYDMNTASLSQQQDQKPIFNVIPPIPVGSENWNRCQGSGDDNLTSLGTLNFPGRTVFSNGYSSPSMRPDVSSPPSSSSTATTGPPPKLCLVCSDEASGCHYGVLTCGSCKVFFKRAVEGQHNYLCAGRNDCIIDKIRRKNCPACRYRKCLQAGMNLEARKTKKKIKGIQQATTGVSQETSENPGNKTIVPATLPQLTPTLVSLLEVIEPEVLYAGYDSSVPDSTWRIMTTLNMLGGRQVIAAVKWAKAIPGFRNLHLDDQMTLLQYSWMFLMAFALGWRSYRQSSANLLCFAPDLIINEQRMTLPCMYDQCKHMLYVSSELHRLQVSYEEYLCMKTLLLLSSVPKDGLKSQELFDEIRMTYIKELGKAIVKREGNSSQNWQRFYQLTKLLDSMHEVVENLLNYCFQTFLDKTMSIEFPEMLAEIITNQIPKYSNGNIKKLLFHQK
UniProt P10275: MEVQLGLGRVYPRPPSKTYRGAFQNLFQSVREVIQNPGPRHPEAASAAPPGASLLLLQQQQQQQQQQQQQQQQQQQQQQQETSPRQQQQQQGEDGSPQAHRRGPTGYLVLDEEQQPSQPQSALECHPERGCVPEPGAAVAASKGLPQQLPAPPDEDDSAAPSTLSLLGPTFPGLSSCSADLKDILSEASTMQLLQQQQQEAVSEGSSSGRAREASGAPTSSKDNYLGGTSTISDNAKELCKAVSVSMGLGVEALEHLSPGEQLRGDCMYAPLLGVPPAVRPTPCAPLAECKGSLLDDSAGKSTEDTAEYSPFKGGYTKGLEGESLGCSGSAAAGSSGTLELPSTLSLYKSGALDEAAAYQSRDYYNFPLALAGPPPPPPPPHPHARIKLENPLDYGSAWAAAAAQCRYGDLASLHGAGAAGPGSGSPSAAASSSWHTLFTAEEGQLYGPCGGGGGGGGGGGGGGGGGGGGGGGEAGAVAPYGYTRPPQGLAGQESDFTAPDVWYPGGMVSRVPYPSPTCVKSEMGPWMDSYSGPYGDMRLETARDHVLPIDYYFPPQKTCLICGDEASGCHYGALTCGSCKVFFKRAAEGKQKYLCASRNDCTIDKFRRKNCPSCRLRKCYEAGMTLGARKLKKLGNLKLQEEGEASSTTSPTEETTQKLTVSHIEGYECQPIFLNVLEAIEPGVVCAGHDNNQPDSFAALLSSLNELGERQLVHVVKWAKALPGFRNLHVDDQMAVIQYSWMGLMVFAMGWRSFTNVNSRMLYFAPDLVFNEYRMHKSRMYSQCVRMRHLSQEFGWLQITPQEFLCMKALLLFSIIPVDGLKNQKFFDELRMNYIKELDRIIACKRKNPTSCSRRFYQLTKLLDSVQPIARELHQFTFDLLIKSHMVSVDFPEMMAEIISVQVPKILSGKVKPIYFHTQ
ARV7 (P10275-3, form named): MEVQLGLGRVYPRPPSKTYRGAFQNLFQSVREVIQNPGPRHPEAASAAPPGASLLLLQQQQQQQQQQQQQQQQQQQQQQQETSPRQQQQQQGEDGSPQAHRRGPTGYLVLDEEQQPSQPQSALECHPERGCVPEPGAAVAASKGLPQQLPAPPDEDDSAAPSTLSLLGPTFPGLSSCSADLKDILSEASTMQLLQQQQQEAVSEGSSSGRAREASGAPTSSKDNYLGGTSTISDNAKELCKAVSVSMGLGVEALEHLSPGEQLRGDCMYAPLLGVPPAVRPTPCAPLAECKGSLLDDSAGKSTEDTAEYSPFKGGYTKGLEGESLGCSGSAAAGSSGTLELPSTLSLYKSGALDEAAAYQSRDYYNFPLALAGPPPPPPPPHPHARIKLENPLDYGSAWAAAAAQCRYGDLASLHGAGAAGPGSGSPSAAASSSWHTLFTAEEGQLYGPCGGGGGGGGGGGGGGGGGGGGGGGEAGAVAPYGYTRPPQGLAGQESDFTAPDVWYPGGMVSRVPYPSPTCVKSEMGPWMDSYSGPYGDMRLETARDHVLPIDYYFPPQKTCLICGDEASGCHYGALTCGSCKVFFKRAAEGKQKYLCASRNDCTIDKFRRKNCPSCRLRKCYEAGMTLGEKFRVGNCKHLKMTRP

Each substance was assayed against T1, TBX2 (human (endogenous in 22Rv1 and C4-2B)) (UniProt Q13207) (assay: co-IP).
T1 sequence: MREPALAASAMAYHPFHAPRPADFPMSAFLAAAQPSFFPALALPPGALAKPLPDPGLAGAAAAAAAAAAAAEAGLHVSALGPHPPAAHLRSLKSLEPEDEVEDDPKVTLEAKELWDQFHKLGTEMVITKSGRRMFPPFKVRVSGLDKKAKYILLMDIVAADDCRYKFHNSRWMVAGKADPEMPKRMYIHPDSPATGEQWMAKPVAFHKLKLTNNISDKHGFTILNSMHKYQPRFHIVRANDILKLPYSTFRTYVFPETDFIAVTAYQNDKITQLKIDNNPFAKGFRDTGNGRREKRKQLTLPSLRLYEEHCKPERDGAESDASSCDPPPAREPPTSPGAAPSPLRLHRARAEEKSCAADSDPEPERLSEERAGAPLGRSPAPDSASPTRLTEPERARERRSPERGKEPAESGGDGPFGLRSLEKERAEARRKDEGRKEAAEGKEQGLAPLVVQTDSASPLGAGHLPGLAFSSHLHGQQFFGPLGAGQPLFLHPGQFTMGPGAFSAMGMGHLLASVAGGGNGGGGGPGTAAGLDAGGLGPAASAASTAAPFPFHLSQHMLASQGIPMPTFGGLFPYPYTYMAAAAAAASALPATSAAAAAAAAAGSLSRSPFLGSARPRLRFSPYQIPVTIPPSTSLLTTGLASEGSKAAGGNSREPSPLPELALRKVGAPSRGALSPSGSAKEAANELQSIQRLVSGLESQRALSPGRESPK

| binding | Substance |
| --- | --- |
| binds | glucocorticoid receptor (from UniProt P04150 1-777) |
| no binding | ARV7 (from UniProt P10275-3 1-644) |
| no binding | androgen receptor (from UniProt P10275 1-920) |
